These are yes or no findings as the source states them, for the method shown. Some binding calls cover weakened binding; strength is not graded here. Where a sequence is shown, tags or fusion partners need not be part of it.
B1: TPP-950: PDA2-6GS-172E1-13-6GS-HSA2-His (bispecific antibody)
chain: EVQLVESGGGVVRPGGSLRLSCAASGFTFDDYAMSWVRQAPGKGLEWVSGITWNAGSTGYADSVKGRFTISRDNAKNSLYLQMNSLRAEDTALYYCVRDKYSYAWSYDDFDIWGQGTMVTVSSGGGGSGGGGSGGGGSGGGGSGGGGSGGGGSEVQLVESGGGVVQPGGSLRLSCAASGFTFSNYGMHWVRQAPGKGLEWVAVISNDGNTKTYADSVKGRFTISRDNSKNTLYLQMNSLRAEDTAVYYCAQDETTTVTASYYFDYWGQGTLVTVSSGGGGSGGGGSGGGGSGGGGSGGGGSGGGGSEVQLVESGGGLVKPGGSLRLSCAASGFTFSNYNMNWVRQAPGKGLEWVSSISSAGTHIYYADSVKGRFTISRDNAKNSLYLQMNSLRAEDTAVYYCARDPHSTGWYKDFDYWGQGTLVTVSSAAAHHHHHH
B2: TPP-957: PD138G7(G109D)-6GS-172E1-13-6GS-HSA2-His (bispecific antibody)
chain: EVQLVESGGGVVRPGGSLRLSCAASGFTFDDYAMSWVRQAPGKGLEWVSGITWNGGSTGYADSVKDRFTISRDNAKNSLYLQMNSLRAEDTALYYCVRDKYSYAWSYDDFDIWGQGTMVTVSSGGGGSGGGGSGGGGSGGGGSGGGGSGGGGSEVQLVESGGGVVQPGGSLRLSCAASGFTFSNYGMHWVRQAPGKGLEWVAVISNDGNTKTYADSVKGRFTISRDNSKNTLYLQMNSLRAEDTAVYYCAQDETTTVTASYYFDYWGQGTLVTVSSGGGGSGGGGSGGGGSGGGGSGGGGSGGGGSEVQLVESGGGLVKPGGSLRLSCAASGFTFSNYNMNWVRQAPGKGLEWVSSISSAGTHIYYADSVKGRFTISRDNAKNSLYLQMNSLRAEDTAVYYCARDPHSTGWYKDFDYWGQGTLVTVSSAAAHHHHHH
B3: 003BB172-E01-2 (VHH, not shown: small tags and cut ends)
VHH: EVQLVESGGGLVQPGGSLRLSCAASGFTFSNYGMHWVRQAPGKRLEWVAVISNDGNTKTYADSVKGRFTISRDNSKNTLYLQMTSLRTEDTAVYYCAQDETTTVTASYYFDYWGQGTLVTVSS
B4: 003BB172-E01-14 (VHH, not shown: small tags and cut ends)
VH: EVQLVESGGGVVQPGRSLRLSCAASGFTFSNYGMHWVRQAPGKGLEWVAVISNDGNTKTYADSVKGRFTISRDNSKNTLYLQMNSLRAEDTAVYYCAQDETTTVTASYYFDYWGQGTLVTVSS
B5: 003BB172-E01-11 (VHH, not shown: small tags and cut ends)
VHH: EVQLVESGGGVVQPGRSLRLSCAASGFTFSNYGMHWVRQAPGKGLEWVAVISNDGNTKTYADSVKGRFTISRDNSKNTLYLQMNSLRTEDTAVYYCAQDETTTVTASYYFDYWGQGTLVTVSS
B6: 003BB172-E01-6 (VHH, not shown: small tags and cut ends)
VHH: EVQLVESGGGLVQPGGSLRLSCAASGFTFSNYGMHWVRQAPGKGLEWVAVISNDGNTKTYADSVKGRFTISRDNSKNMLYLQMNSLRTEDTAVYYCAQDETTTVTASYYFDYWGQGTLVTVSS
B7: 003BB172-E01-8 (VHH, not shown: small tags and cut ends)
VHH: EVQLVESGGGVVQPGGSLRLSCAASGFTFSNYGMHWVRQAPGKGLEWVAVISNDGNTKTYADSVKGRFTISRDNSKNTLYLQMNSLRTEDTAVYYCAQDETTTVTASYYFDYWGQGTLVTVSS
B8: 003BB172-E01-9 (VHH, not shown: small tags and cut ends)
VHH: EVQLVESGGGLVQPGGSLRLSCAASGFTFSNYGMHWVRQAPGKGLEWVAVISNDGNTKTYADSVKGRFTISRDNSKNTLYLQMNSLRAEDTAVYYCAQDETTTVTASYYFDYWGQGTLVTVSS
B9: 003BB172-E01-10 (VHH, not shown: small tags and cut ends)
VHH: EVQLVESGGGLVQPGRSLRLSCAASGFTFSNYGMHWVRQAPGKGLEWVAVISNDGNTKTYADSVKGRFTISRDNSKNTLYLQMNSLRTEDTAVYYCAQDETTTVTASYYFDYWGQGTLVTVSS
B10: 003BB172-E01-7 (VHH, not shown: small tags and cut ends)
VHH: EVQLVESGGGLVQPGGSLRLSCAASGFTFSNYGMHWVRQAPGKGLEWVAVISNDGNTKTYADSVKGRFTISRDNSKNTLYLQMNSLRTEDTAVYYCAQDETTTVTASYYFDYWGQGTLVTVSS
B11: 003BB172-E01-13 (VHH, not shown: small tags and cut ends)
VHH: EVQLVESGGGVVQPGGSLRLSCAASGFTFSNYGMHWVRQAPGKGLEWVAVISNDGNTKTYADSVKGRFTISRDNSKNTLYLQMNSLRAEDTAVYYCAQDETTTVTASYYFDYWGQGTLVTVSS
B12: 003BB172-E01-12 (VHH, not shown: small tags and cut ends)
VHH: EVQLVESGGGLVQPGRSLRLSCAASGFTFSNYGMHWVRQAPGKGLEWVAVISNDGNTKTYADSVKGRFTISRDNSKNTLYLQMNSLRAEDTAVYYCAQDETTTVTASYYFDYWGQGTLVTVSS
B13: 003BB172-E01-3 (VHH, not shown: small tags and cut ends)
VHH: EVQLVESGGGLVQPGGSLRLSCAASGFTFSNYGMHWVRQAPGKRLEWVAVISNDGNTKTYADSVKGRFTISRDNSKNMLYLQMNSLRTEDTAVYYCAQDETTTVTASYYFDYWGQGTLVTVSS
B14: 003BB172-E01-5 (VHH, not shown: small tags and cut ends)
VH: EVQLVESGGGLVQPGGSLRLSCAASGFTFSNYGMHWVRQAPGKRLEWVAVISNDGNTKTYADSVKGRFTISRDNSKNTLYLQMNSLRTEDTAVYYCAQDETTTVTASYYFDYWGQGTLVTVSS
B15: 003BB172-E01-4 (VHH, not shown: small tags and cut ends)
VHH: EVQLVESGGGLVQPGGSLRLSCAASGFTFSNYGMHWVRQAPGKGLEWVAVISNDGNTKTYADSVKGRFTISRDNSKNTLYLQMTSLRTEDTAVYYCAQDETTTVTASYYFDYWGQGTLVTVSS
B16: TPP-951: PDA2-6GS-172E1-13-6GS-HSA3-His (bispecific antibody)
chain: EVQLVESGGGVVRPGGSLRLSCAASGFTFDDYAMSWVRQAPGKGLEWVSGITWNAGSTGYADSVKGRFTISRDNAKNSLYLQMNSLRAEDTALYYCVRDKYSYAWSYDDFDIWGQGTMVTVSSGGGGSGGGGSGGGGSGGGGSGGGGSGGGGSEVQLVESGGGVVQPGGSLRLSCAASGFTFSNYGMHWVRQAPGKGLEWVAVISNDGNTKTYADSVKGRFTISRDNSKNTLYLQMNSLRAEDTAVYYCAQDETTTVTASYYFDYWGQGTLVTVSSGGGGSGGGGSGGGGSGGGGSGGGGSGGGGSEVQLLESGGGLVKPGGSLRLSCAASGFTVSSYTMNWVRQAPGKGLEWVSSISSSGRYIYYADSVKGRFTISRDNAKNSLYLQMNSLRAEDTAVYYCARDPRMVGNPHEFDIWGQGTMVTVSSAAAHHHHHH
B17: TPP-958: PD138G7(G109D)-6GS-172E1-13-6GS-HSA3-His (bispecific antibody)
chain: EVQLVESGGGVVRPGGSLRLSCAASGFTFDDYAMSWVRQAPGKGLEWVSGITWNGGSTGYADSVKDRFTISRDNAKNSLYLQMNSLRAEDTALYYCVRDKYSYAWSYDDFDIWGQGTMVTVSSGGGGSGGGGSGGGGSGGGGSGGGGSGGGGSEVQLVESGGGVVQPGGSLRLSCAASGFTFSNYGMHWVRQAPGKGLEWVAVISNDGNTKTYADSVKGRFTISRDNSKNTLYLQMNSLRAEDTAVYYCAQDETTTVTASYYFDYWGQGTLVTVSSGGGGSGGGGSGGGGSGGGGSGGGGSGGGGSEVQLLESGGGLVKPGGSLRLSCAASGFTVSSYTMNWVRQAPGKGLEWVSSISSSGRYIYYADSVKGRFTISRDNAKNSLYLQMNSLRAEDTAVYYCARDPRMVGNPHEFDIWGQGTMVTVSSAAAHHHHHH
B18: TPP-969: PDA-6GS-HSA2-6GS-172E1-13-His (bispecific antibody)
chain: EVQLVESGGGLVQPGRSLRLSCAASGFTFDDYALHWVRQAPGKDLEWVSGISWNGGSYGYADSVKGRFTISRDNAKNSLYLQMNSLRAEDTALYYCVREKGPGLTGSTADYYGLDAWGQGTMVTVSSGGGGSGGGGSGGGGSGGGGSGGGGSGGGGSEVQLVESGGGLVKPGGSLRLSCAASGFTFSNYNMNWVRQAPGKGLEWVSSISSAGTHIYYADSVKGRFTISRDNAKNSLYLQMNSLRAEDTAVYYCARDPHSTGWYKDFDYWGQGTLVTVSSGGGGSGGGGSGGGGSGGGGSGGGGSGGGGSEVQLVESGGGVVQPGGSLRLSCAASGFTFSNYGMHWVRQAPGKGLEWVAVISNDGNTKTYADSVKGRFTISRDNSKNTLYLQMNSLRAEDTAVYYCAQDETTTVTASYYFDYWGQGTLVTVSSAAAHHHHHH
B19: TPP-943: PDA-6GS-172E1-13-6GS-HSA2-His (bispecific antibody)
chain: EVQLVESGGGLVQPGRSLRLSCAASGFTFDDYALHWVRQAPGKDLEWVSGISWNGGSYGYADSVKGRFTISRDNAKNSLYLQMNSLRAEDTALYYCVREKGPGLTGSTADYYGLDAWGQGTMVTVSSGGGGSGGGGSGGGGSGGGGSGGGGSGGGGSEVQLVESGGGVVQPGGSLRLSCAASGFTFSNYGMHWVRQAPGKGLEWVAVISNDGNTKTYADSVKGRFTISRDNSKNTLYLQMNSLRAEDTAVYYCAQDETTTVTASYYFDYWGQGTLVTVSSGGGGSGGGGSGGGGSGGGGSGGGGSGGGGSEVQLLESGGGLVKPGGSLRLSCAASGFTVSSYTMNWVRQAPGKGLEWVSSISSSGRYIYYADSVKGRFTISRDNAKNSLYLQMNSLRAEDTAVYYCARDPRMVGNPHEFDIWGQGTMVTVSSAAAHHHHHH
B20: TPP-942: PDA-6GS-172E1-13-6GS-HSA2-2-His (bispecific antibody)
chain: EVQLVESGGGLVQPGRSLRLSCAASGFTFDDYALHWVRQAPGKDLEWVSGISWNGGSYGYADSVKGRFTISRDNAKNSLYLQMNSLRAEDTALYYCVREKGPGLTGSTADYYGLDAWGQGTMVTVSSGGGGSGGGGSGGGGSGGGGSGGGGSGGGGSEVQLVESGGGVVQPGGSLRLSCAASGFTFSNYGMHWVRQAPGKGLEWVAVISNDGNTKTYADSVKGRFTISRDNSKNTLYLQMNSLRAEDTAVYYCAQDETTTVTASYYFDYWGQGTLVTVSSGGGGSGGGGSGGGGSGGGGSGGGGSGGGGSEVQLVESGGGLVKPGGSLRLSCAASGFTFSNYNMNWVRQAPGKGLEWVSSISSAGTHIYYADSVKGRFTISRDNAKNSLYLQMNSLRAEDTAVYYCARDPHSTGWYKDFDYWGQGTLVTVSSAAAHHHHHH

Sequences of proteins named here, by UniProt entry; tags and fusion partners are left off. A change or cut given only in a name is not applied to a line headed by its entry.
UniProt Q07011: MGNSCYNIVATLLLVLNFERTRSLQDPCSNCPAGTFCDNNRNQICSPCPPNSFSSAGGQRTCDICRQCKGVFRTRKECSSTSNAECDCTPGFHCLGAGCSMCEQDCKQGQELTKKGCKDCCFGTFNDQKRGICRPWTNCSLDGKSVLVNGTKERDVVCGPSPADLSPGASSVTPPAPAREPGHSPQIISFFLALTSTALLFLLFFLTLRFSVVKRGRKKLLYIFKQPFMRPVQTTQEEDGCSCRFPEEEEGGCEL

Each binder was assayed against human CD137 expressed on cells (human) (UniProt Q07011) (assay: FMAT (Mirrorball), His-tagged sample on CHO human CD137 cells).

binding, binds:
B1
B2
B3
B4
B5
B6
B7
B8
B9
B10
B11
B12
B13
B14
B15
B16
B17
B18
B19
B20

Reference: patent US20220220215A1
